Here are results for four molecules from patent US20240174755A1 (published 2024).

No constants are given. Whether binding was seen depends on the method and setting. Some entries that bind do so weakly or less than the wild type.

Test [1] deals with human PDGFR β extra-cellular domain (ECD), Fc- and His-tagged (Sino Biological) (human) (UniProt P09619). The test is described as follows: ELISA on human PDGFRβ extracellular domain after 3 freeze-thaw cycles, streptavidin-HRP or anti-VHH detection.
The target is the same in test [2]. The test is described as follows: biotin-streptavidin ELISA on coated human PDGFR β ECD.
The target of test [3] is T1, mouse PDGFR β ECD (R&D Systems) (mouse, UniProt P05622 32-531).
T1 construct: extracellular domain; Bought; also called mECD; mouse ECD
T1 sequence (looked up): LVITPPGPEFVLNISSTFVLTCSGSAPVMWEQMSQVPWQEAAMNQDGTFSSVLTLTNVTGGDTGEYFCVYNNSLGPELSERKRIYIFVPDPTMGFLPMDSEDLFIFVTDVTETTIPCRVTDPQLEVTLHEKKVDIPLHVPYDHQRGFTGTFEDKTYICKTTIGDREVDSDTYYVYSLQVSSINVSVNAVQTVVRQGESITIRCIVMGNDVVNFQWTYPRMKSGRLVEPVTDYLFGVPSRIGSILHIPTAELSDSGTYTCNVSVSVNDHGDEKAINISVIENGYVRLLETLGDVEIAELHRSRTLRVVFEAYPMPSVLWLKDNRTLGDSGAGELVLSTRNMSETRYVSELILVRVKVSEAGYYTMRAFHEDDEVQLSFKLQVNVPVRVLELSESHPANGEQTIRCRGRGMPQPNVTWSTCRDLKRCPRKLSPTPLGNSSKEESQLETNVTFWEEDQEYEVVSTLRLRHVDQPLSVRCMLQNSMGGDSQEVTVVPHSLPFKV
The test can be described thus: biotin-streptavidin ELISA, mouse PDGFR β ECD coated at 4 ug/ml. As to the method:
In this example, the binding affinity of biotin-conjugated VHHs 1B5 and 1E12 to either human or mouse PDGFR β extra-cellular domain (ECD) was assessed using biotin-streptavidin ELISA. Human or mouse PDGFR β ECD was coated on immunoassay wells, where 1B5-biotin or 1E12-biotin were captured. Binding was detected using streptavidin-HRP and ODP as a substrate.
ELISA Method 96-well maxisorp (Nunc) immunosorp plates were coated with 1 ug/ml or 2 ug/ml of PDGFR β extracellular domain (ECD; Fc- and His-tagged, Sino Biological) or mouse PDGFR β ECD (R&D Systems) 4 ug/ml in PBS, 100 ul per well, at 4C overnight. Wells were washed thrice in PBS. Unspecific binding sites were blocked in 4% BSA/PBS for 1h at RT, followed by washing thrice in PBS. VHHs 1B5-biotin or 1E12-biotin, diluted at 0.01-100 nM in 1% BSA/PBS, was allowed to bind on ECD for 1 h at RT, followed by washing thrice in PBS. Streptavidin-horseradish peroxidase (HRP; GeneTex) was diluted 1:10,000 in 1% BSA/PBS and was incubated for 1 h at RT. […] Optical density was measured at 492 nm on a Synergy H1 microplate reader (BioTek).

In test [4] the target is T1, mouse PDGFR β ECD (R&D Systems). The test is described as follows: biotin-streptavidin ELISA on coated mouse PDGFR β ECD. Background: In an ELISA, binding on a coated surface is turned into a signal by an enzyme label.
In test [5] the target is human PDGFR β extra-cellular domain (ECD), Fc- and His-tagged (Sino Biological) (human) (UniProt P09619). The test is described as follows: biotin-streptavidin ELISA, human PDGFR β ECD coated at 2 ug/ml.

B1: 1B5-biotin (VHH)
VHH: EVQLVESGGGLVQPGGSLRLSCVASGFSFSESAMSWVRQAPGKGLEWLSGISSGGGRSTTYAESVEGRFTISRDDAKNTLMLQMNSLKSEDTAVYYCAKTGYCSGYNCNFAPRGQGTQVTVSS
modifications: Biotin-maleimide on the C-terminal cysteine of the C-Direct tag
notes: ID NO: 25 or 26; also called VHH 1B5-biotin; biotin-conjugated 1B5; not shown: C-terminal C-Direct tag with a free cysteine and an EPEA purification tag (vector pYQVQ11)
As to B1, the binding result in test [1], in test [2], in test [3] and in test [4] was “binds” throughout.

B2: 1E12-biotin (VHH)
VHH: EVQLVESGGGLVQAGGSLRLSCAPSERSFSAYLMGWFRQAQGKEREFVAAWRWPTSTTYYSDSGKGRFTITGDNAKNTVELEMNSLKPEDTAVYYCAARRGILYGPATSPTAYDFWGQGTQVTVSS
modifications: Biotin-maleimide on the C-terminal cysteine of the C-Direct tag
notes: ID NO: 31 or 32; also called VHH 1E12-biotin; biotin-conjugated 1E12; not shown: C-terminal C-Direct tag with a free cysteine and an EPEA purification tag (vector pYQVQ11)
For the molecule B2, the binding result in test [1], in test [2], in test [3], in test [5] and in test [4] was “binds” in each case.

B3: 1H4-biotin (VHH)
VHH: EVQLVESGGGLVQPGGSLRVSCSASWRTGNPFAMAWFRQAPGKERELIARISWTAGRTEYAESAKGRFTISRDVAKKTMYLQMNSLTPEDTGVYFCAARFVPSSGPTVFDTWGQGTQVTVSS
modifications: Biotin-maleimide on the C-terminal cysteine of the C-Direct tag
notes: ID NO: 29 or 30; also called biotin-conjugated 1H4; VHH-biotin; not shown: C-terminal C-Direct tag with a free cysteine and an EPEA purification tag (vector pYQVQ11)
On to B3, for which the binding entry in test [1] is reported as “binds”.

B4: 1D4-biotin (VHH)
VHH: EVQLVESGGGLVQAGDSLRLSCAVSGRAQSRDVVGWFRQAPGKEREFLALVTRSYSTYYGASVKGRFTISRDNAKNTVHLEMNSLKPEDTGVYYCAADQGFCSGSGCYDWRTFHVWGQGTQVTVSS
modifications: Biotin-maleimide on the C-terminal cysteine of the C-Direct tag
notes: ID NO: 27 or 28; also called biotin-conjugated 1D4; VHH-biotin; not shown: C-terminal C-Direct tag with a free cysteine and an EPEA purification tag (vector pYQVQ11)
Take B4: the binding result in test [1] is “binds”.
